By UniProt entry, the sequences of proteins in these tests, tags left out. Where a name states a change or a piece, a line headed by the entry shows the natural chain unless it says otherwise.
UniProt P48444: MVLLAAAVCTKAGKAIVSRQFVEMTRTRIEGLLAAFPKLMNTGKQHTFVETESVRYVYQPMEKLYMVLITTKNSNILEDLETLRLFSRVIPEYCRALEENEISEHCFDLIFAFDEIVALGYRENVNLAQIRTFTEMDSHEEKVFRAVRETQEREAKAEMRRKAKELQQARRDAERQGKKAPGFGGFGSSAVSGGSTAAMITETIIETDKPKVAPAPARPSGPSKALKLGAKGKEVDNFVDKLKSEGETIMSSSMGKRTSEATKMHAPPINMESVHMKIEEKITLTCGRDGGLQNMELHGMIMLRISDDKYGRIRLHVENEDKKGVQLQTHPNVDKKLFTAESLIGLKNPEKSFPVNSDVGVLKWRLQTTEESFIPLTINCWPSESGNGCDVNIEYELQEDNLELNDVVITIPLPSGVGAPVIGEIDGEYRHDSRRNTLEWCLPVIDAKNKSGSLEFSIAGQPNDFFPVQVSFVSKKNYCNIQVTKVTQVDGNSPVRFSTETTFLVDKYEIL
UniProt P51795: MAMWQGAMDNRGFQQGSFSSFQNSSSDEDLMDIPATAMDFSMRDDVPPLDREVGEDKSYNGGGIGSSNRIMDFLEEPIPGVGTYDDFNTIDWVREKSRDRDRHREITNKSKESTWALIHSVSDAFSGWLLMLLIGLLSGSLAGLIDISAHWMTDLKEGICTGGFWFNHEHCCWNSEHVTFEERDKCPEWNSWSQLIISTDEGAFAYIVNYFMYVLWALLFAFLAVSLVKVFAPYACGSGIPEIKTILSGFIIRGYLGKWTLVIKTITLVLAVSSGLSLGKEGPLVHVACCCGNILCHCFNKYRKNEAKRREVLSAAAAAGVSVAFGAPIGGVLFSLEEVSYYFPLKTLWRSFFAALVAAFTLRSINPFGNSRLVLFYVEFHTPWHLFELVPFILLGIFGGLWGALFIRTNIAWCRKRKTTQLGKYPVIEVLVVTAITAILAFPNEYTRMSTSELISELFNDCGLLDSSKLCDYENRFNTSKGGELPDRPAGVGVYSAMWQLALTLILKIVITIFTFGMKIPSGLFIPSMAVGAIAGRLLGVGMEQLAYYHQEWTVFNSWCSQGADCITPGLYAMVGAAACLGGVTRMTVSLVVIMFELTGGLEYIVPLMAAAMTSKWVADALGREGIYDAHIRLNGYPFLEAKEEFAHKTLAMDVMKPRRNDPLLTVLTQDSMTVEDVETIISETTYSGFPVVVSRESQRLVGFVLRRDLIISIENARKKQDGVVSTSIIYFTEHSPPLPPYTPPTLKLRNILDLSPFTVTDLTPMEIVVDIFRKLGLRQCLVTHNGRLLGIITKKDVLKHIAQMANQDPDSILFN
UniProt P50452: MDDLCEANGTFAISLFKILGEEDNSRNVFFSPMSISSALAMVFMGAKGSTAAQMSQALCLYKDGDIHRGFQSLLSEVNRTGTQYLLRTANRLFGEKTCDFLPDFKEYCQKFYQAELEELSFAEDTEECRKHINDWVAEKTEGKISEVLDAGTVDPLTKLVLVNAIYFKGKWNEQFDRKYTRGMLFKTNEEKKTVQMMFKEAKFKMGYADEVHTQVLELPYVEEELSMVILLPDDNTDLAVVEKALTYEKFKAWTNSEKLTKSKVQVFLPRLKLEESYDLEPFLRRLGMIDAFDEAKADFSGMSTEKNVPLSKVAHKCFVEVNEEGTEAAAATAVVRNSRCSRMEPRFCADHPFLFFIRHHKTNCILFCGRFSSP
UniProt P51991: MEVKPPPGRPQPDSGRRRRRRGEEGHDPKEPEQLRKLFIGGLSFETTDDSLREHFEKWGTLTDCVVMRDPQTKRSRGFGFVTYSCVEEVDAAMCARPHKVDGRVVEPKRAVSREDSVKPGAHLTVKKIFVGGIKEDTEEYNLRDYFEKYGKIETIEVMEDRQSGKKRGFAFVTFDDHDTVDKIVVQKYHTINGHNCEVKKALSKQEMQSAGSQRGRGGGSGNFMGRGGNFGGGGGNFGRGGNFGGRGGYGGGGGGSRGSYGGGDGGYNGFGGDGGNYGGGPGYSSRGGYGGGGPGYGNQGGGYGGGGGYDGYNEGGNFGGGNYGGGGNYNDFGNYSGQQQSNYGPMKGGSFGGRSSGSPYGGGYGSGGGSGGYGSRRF
UniProt P53814: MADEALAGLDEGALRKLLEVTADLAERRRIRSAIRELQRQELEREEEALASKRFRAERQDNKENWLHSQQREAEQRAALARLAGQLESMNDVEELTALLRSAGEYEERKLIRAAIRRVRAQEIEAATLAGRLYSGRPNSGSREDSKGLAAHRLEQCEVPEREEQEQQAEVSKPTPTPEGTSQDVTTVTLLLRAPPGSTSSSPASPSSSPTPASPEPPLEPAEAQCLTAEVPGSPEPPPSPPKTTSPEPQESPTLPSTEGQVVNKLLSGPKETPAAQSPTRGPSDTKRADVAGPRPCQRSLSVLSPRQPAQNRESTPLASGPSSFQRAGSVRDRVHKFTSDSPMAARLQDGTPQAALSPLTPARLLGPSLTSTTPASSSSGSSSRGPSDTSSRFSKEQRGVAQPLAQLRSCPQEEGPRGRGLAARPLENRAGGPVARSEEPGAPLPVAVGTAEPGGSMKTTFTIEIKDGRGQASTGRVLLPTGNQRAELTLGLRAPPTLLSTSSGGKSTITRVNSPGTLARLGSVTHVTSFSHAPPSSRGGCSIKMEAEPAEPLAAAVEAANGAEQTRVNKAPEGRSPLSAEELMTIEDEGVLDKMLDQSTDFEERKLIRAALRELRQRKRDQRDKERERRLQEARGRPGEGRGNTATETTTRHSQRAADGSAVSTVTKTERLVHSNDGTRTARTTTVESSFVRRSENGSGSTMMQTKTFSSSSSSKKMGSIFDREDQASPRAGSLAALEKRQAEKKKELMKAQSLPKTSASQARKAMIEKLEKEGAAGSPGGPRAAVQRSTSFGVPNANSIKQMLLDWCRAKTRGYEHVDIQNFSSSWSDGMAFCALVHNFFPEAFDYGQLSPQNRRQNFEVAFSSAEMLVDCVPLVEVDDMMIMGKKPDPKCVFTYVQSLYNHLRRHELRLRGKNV
UniProt P52564: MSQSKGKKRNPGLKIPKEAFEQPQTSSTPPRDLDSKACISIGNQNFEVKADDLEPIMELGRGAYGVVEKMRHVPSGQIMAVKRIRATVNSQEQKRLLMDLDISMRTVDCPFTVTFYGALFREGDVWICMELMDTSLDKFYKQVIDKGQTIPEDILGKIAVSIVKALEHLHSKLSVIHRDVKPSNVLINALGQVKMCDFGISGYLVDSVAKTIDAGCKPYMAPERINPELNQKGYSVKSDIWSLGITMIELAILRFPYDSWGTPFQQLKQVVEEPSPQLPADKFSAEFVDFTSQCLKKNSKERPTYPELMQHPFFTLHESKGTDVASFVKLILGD
UniProt P52597: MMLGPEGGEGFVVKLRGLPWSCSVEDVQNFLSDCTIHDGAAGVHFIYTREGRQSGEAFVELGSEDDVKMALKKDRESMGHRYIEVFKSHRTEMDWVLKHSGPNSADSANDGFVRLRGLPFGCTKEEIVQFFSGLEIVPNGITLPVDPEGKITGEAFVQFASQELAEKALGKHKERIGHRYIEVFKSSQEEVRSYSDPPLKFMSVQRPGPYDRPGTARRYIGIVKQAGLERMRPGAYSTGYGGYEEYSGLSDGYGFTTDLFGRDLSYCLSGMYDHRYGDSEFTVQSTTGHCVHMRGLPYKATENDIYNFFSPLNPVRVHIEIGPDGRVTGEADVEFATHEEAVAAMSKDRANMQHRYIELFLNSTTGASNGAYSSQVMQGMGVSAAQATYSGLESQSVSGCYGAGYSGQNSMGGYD
UniProt P49441: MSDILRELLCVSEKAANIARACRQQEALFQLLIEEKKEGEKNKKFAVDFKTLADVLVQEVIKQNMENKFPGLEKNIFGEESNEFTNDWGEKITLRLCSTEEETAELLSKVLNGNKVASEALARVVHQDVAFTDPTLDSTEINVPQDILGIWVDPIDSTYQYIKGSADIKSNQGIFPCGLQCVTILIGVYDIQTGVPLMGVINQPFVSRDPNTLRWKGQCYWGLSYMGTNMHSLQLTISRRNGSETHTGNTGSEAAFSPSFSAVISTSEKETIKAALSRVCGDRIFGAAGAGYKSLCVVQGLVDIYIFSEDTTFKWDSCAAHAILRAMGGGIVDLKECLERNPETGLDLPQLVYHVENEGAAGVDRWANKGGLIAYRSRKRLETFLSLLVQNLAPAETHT

The other results are listed elsewhere or left out. Small differences around the control level are noise.
Each target was assayed with Cc1nc(Nc2ncc(C(=O)Nc3c(C)cccc3Cl)s2)cc(N2CCN(CCO)CC2)n1 [dasatinib] (assay: log2 fold change of tryptic peptide abundance, ligand vs vehicle (limited proteolysis) (log2 ratio); higher = more trypsin-susceptible (destabilized)). Details: ligand concentration: 5 uM; sample: K562 cleared lysate.
“ARCN1 (peptide sequence: ISDDKYGR, peptide start residue: 305) (UniProt P48444)” showed a log2 fold change of -0.342.
With “CLCN5 (peptide sequence: SYNGGGIGSSNR, peptide start residue: 58) (UniProt P51795)” the log2 fold change was 0.187.
“SERPINB8 (peptide sequence: KYTRGMLFK, peptide start residue: 178) (UniProt P50452)” gave a log2 fold change of 0.0544.
Work on “HNRNPA3 (peptide sequence: WGTLTDCVVMRDPQTK, peptide start residue: 58) (UniProt P51991)” yielded a log2 fold change of 0.202.
With “SMTN (peptide sequence: TTFTIEIK, peptide start residue: 459) (UniProt P53814)” the log2 fold change was -0.248.
In the case of “UniProt P52564 (peptide sequence: IRATVNSQEQK, peptide start residue: 95)”, the log2 fold change is reported as -0.782.
“HNRNPF (peptide sequence: HSGPNSADSANDGFVR, peptide start residue: 99) (UniProt P52597)” was tested, and the log2 fold change was 0.0917.
With “INPP1 (peptide sequence: IFGAAGAGYK, peptide start residue: 284) (UniProt P49441)” the log2 fold change was 0.161.

Source: the supplement of paper PMC12819154, “High-throughput peptide-centric local stability assay extends protein–ligand identification to membrane proteins, tissues and bacteria” (Nature Structural & Molecular Biology, 2025)
